Measured values published in PubChem BioAssay AID493014 (National Center for Advancing Translational Sciences (NCATS), 2011).
The campaign covered roughly 340,000 compounds. About 170 (0.05%) were called active. Inconclusive results, whose numbers are uncertain, are shown with a selection of clear calls. Calls follow the shape of the dose curve; as a rule, active = well fitted inhibition curve with a large enough effect in the signal ratio, with a control signal flat (not every such curve was filed as active); inconclusive = small, poorly fitted or top-dose-only effect, or effect the other way, or a change in a side signal; inactive = flat fitted curve, though single readings scatter; the % refers to the signal ratio. A potency beside an inconclusive call is a rough fit, not a confirmed value.

Test: qHTS Assay to Find Inhibitors of Chronic Active B-Cell Receptor Signaling;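 as to activity change, negative = inhibition: plate controls were basal doxycycline-induced cells for no effect and cells given 10 µM MG132 for full effect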
Conditions: ABC-DLBCL IkBa-CBG/CBR reporter, luminescence ratio (green luciferase fused to IkBa over red control in TMD8 lymphoma cells), 4 h; activity change, negative = inhibition: at 46.1 µM (top of the series)
Outline: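 Compounds up to 46 uM were incubated four hours with TMD8 cells whose green CBG68 luciferase is fused to IkappaBalpha; red CBR luminescence normalised the signal, and concentration-effect curves were fitted to fusion, red and ratio data.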
Potency is read from the fitted curve at half-maximal effect.

SMILES	Potency	activity change, negative = inhibition
Cc1ccc(CC(=O)Nc2ncc([N+](=O)[O-])s2)cc1	inconclusive: 25.1 µM [falling, single point]	–
O=C(Cc1ccc(Cl)c(Cl)c1)N/N=C/c1cccnc1	–	inactive: -22.6%
O=C(N/N=C/c1ccc(-c2ccc(S(=O)(=O)Nc3ncccn3)cc2)o1)c1cc2ccccc2cc1O	inconclusive: 4.11 µM [falling, single point]	–
O=C(Nc1ccc2oc(-c3ccc4ccccc4c3)nc2c1)c1cccs1	inconclusive: 0.184 µM [rising, full curve]	–
CCS(=O)(=O)c1ncc(Cl)c(C(=O)Nc2ccc(S(=O)(=O)N(C)c3ccccc3)cc2)n1	–	inconclusive: 11.9%
O=C(COc1ccc(Cl)cc1)N1CCCCC1	–	inconclusive: 4.48%
CCOCc1nnc(NC(=O)CCc2ccccc2)s1	–	inconclusive: -1.83%
CC(=O)N1CCN(CCS(=O)(=O)c2cc(Cl)ccc2Cl)CC1	inconclusive: 29.1 µM [falling, single point]	–
CC(C)NCCCOc1ccc(Cl)cc1Br	–	inconclusive: -13.2%
CCOc1ccc(C2C=C(c3ccccc3)Nc3nnnn32)cc1 (stereo not given)	–	inactive: 7.52%
CCOC(=O)c1c(-c2cccs2)csc1NC(C)=O	–	inconclusive: 9.07%
O=C(COc1ccccc1F)Nc1ccc(S(=O)(=O)N2CCCC2)cc1	–	inactive: -3.43%
COc1ccc(OC2CCN(S(=O)(=O)c3ccc(OC)c(OC)c3)CC2)cc1	inconclusive: 28.2 µM [falling, partial curve, poor fit]	–
O=C(Cn1cc(SCc2ccccc2Cl)c2ccccc21)N1CCOCC1	inconclusive: 23.1 µM [falling, partial curve]	–
C/C(CC(=O)Nc1cccnc1)=N\NC(=O)C(C)Oc1ccc(Cl)cc1Cl (stereo not given)	–	inconclusive: -23.7%
Brc1ccc(-c2csc3[n+]2CCCCC3)cc1	inconclusive: 3.55 µM [falling, partial curve, poor fit]	–
Cn1nc(C(C)(C)C)c(NC(=O)c2ccc(F)cc2)c1C(C)(C)C	–	inconclusive: 10.9%
COc1ccccc1NC(=O)/C=C/c1ccc2c(c1)OCO2	inconclusive: 3.98 µM [falling, partial curve]	–
CC(=O)Nc1ccc(S(=O)(=O)N2CCN(C(=O)N3CCOCC3)CC2)cc1	–	inconclusive: 4.03%
CCOC(=O)Cc1csc(NC(=O)CSc2nc3cccnc3n2CC)n1	–	inconclusive: -22.6%
C=Cc1ccc(CN2C(=O)N(c3ccc(C)c(C)c3)S(=O)(=O)c3ccccc32)cc1	inconclusive: 2.82 µM [rising, full curve, poor fit]	–
Cc1ccc(-c2nnc(NC(=O)c3ccco3)s2)cc1	inconclusive: 6.31 µM [falling, full curve]	–
Nc1nc(CCl)nc(N(c2ccccc2)c2ccccc2)n1	–	inconclusive: 0.0248%
O=C(c1ccc2c(c1)OCO2)[C@@H]1[C@@H]2C(=O)N(C3CCCCC3)C(=O)[C@@H]2C2c3ccccc3C=CN21 (stereo not given in full)	inconclusive: 17.8 µM [falling, partial curve, poor fit]	–
Fc1ccccc1N1CCN(c2nc3ccccc3n3nnnc23)CC1	–	inconclusive: 1.44%
CCOc1ccc(C(NC(=O)CC)c2c(O)ccc3ccccc23)cc1 (stereo not given)	–	inactive: -10%
O=C(CC1C(=O)NCCN1Cc1cccc(Oc2ccccc2)c1)NCCc1cnccn1 (stereo not given)	–	inactive: -2.87%

Random excerpt: 4 compounds from above, in no set order.
SMILES	Potency	activity change, negative = inhibition
CC(C)NCCCOc1ccc(Cl)cc1Br	–	inconclusive: -13.2%
O=C(c1ccc2c(c1)OCO2)[C@@H]1[C@@H]2C(=O)N(C3CCCCC3)C(=O)[C@@H]2C2c3ccccc3C=CN21 (stereo not given in full)	inconclusive: 17.8 µM [falling, partial curve, poor fit]	–
O=C(Cc1ccc(Cl)c(Cl)c1)N/N=C/c1cccnc1	–	inactive: -22.6%
CCOC(=O)Cc1csc(NC(=O)CSc2nc3cccnc3n2CC)n1	–	inconclusive: -22.6%

Remaining list, next part

SMILES	Potency	activity change, negative = inhibition
Cc1c(C(=O)N(CC(C)C)c2c(N)n(Cc3ccccc3)c(=O)[nH]c2=O)sc2nc3n(c(=O)c12)CCC3	–	inconclusive: 17.3%
O=C(/C=C/c1ccc(Cl)c(Cl)c1)N1CCc2ccccc21	–	inconclusive: 11.1%
O=C(Cc1ccccc1)NCC(=O)OCC(=O)c1ccc([N+](=O)[O-])cc1	–	inconclusive: -3.62%
CN1CCN(C(=O)c2ccc(COc3ccc(Cl)cc3Cl)cc2)CC1	–	inconclusive: -17.2%
COc1ccc(-c2csc(N(CC3CCCO3)C(=O)c3ccco3)n2)cc1 (stereo not given)	–	inconclusive: -23.1%
CC(C)Oc1ccc(/C=N/NC(N)=S)cc1	inconclusive: 29.1 µM [falling, single point]	–
CC(C)CC(=O)Nc1nnc(SCC(=O)NCc2ccc3c(c2)OCO3)s1	–	inactive: 0.886%
CCOC(=O)CSc1nnc(-c2cccc(Cl)c2)n1CC	–	inconclusive: 6.06%
Cc1cc(C)c(NC(=O)CS(=O)CC(=O)NC2CCCc3ccccc32)c(C)c1 (stereo not given)	inconclusive: 6.51 µM [falling, single point]	–
CCC(=O)Nc1cc(-c2nn3c(C)nnc3s2)ccc1C	–	inconclusive: -1.7%
C/C(=N\NC(=S)NC1CCCCC1)c1ccc(C)o1	inconclusive: 28.2 µM [falling, single point]	–
CCNC(=O)c1c(O)c2cccc3c2n(c1=O)CC3	–	inconclusive: 1.95%
COc1ccc(C(=O)NN/C(C)=C/C(=O)C(F)(F)C(F)(F)C(F)(F)F)cc1	–	inconclusive: -2.24%
CN1C(=O)c2ccccc2C(C(=O)O)C1c1cccc(Cl)c1 (stereo not given)	–	inconclusive: 1.75%
COc1cccc(C(=O)NC(=S)Nc2ccc(N(C)C)cc2)c1	inconclusive: 5.8 µM [falling, partial curve, poor fit]	–
CN(C[C@H](CC1CCCCC1)N(C[C@H](Cc1ccccc1)N(CCc1ccccc1)N=O)N=O)N=O	–	inactive: 14.2%
COCc1cc(/C=N\NC(=O)COc2ccccc2)ccc1OC	–	inconclusive: -0.911%
CCn1c(C)nc2cc(C(=O)NNC(=S)Nc3ccc(Cl)cc3Cl)ccc21	–	inactive: 14.6%
NC(=O)c1cc(Cc2ccccc2)sc1NC(=O)c1ccco1	–	inactive: 11%
O=C(Nc1nc2cc3c(cc2s1)OCCO3)c1ccncc1	inconclusive: 11.2 µM [falling, partial curve, poor fit]	–
COc1ccccc1-c1cc2nc(C)c(CCC(=O)NCc3ccco3)c(C)n2n1	inconclusive: 16.4 µM [falling, partial curve]	–
COc1ccc(-c2cc3ccccc3s2)cc1[C@H]1[C@H]2C=CC[C@@H](C)[C@@H]2C(=O)N1Cc1ccccc1	–	inconclusive: -10.4%
Cc1ccc(C(=O)N/N=C/c2cn(Cc3ccccc3)c3ccccc23)cn1	–	inconclusive: 8.77%
Fc1ccc(-c2c[nH]c(=S)n2Cc2ccccc2)cc1	–	inactive: -9.3%
Cc1cc2c(C)nc(N/N=C/c3ccc([N+](=O)[O-])cc3)nc2o1	–	inconclusive: 13%
O=C1C2C(C(=O)N1/N=C/c1ccc([N+](=O)[O-])o1)C1C=CC2C12CC2 (stereo not given)	inconclusive: 20.6 µM [cytotoxic, single point]	–
Cc1cnc(NC(=O)Nc2ccc(Cl)cc2)s1	–	inconclusive: 12.3%

SMILES	Potency	activity change, negative = inhibition
COc1cccc(CNC(=O)c2ccc(NC(=O)C3=CSCCO3)cc2)c1	–	inconclusive: 0.861%
COc1ccc(/C=C2/SC(=O)N(CCC(=O)Nc3ccc(S(=O)(=O)Nc4nccs4)cc3)C2=O)cc1	inconclusive: 6.51 µM [falling, single point]	–
Cc1ccc(-n2c(C)nc3c(cnn3-c3ccc(F)cc3)c2=O)cc1	–	inactive: -9.28%
Cn1cc(Cl)c(C(=O)NC(=S)Nc2sc3c(c2C#N)CCCCC3)n1	–	inconclusive: 4.07%
Cc1ccc(C(=O)OCC(=O)NCCc2ccccc2)cc1C	–	inconclusive: 3.66%
COC(=O)C1(C(F)(F)F)N=C(C(F)(F)F)Nc2ccc(Cl)cc21 (stereo not given)	–	inconclusive: 2.96%
O=C(NNc1ccccc1[N+](=O)[O-])Nc1ccccc1	–	inactive: -11.3%
COc1ccc(-c2cc(C(F)(F)F)n3nc(C(=O)O)cc3n2)cc1OC	–	inactive: -0.596%
Cc1c(OCC(=O)OC(C)C)ccc2c3c(c(=O)oc12)CCC3	–	inconclusive: -0.813%
Cc1cc(C)c(C#N)c(SCSCc2ccccc2)n1	inconclusive: 13 µM [rising, partial curve]	–
Cc1cc(-c2ccc(C)c(S(=O)(=O)NCCCN3CCN(c4ccccc4F)CC3)c2)on1	–	inconclusive: -3.91%
C=CCSc1nnc(-c2cccnc2)o1	–	inconclusive: 15.8%
O=C(COC(=O)Cn1cc(C(F)(F)F)ccc1=O)NCc1ccccc1	–	inconclusive: 13.2%
O=C(c1cc(-c2ccncc2)nc2ccccc12)N1CCN(c2ncccn2)CC1	–	inactive: -0.844%
O=[N+]([O-])c1ccc2cn(-c3ccccc3)nc2c1	–	inconclusive: -1.19%
CCOc1ccc2c(c1)-c1c(ssc1=S)C(C)(C)N2	–	inconclusive: 25.8%
N#Cc1cc2nc(O)c(O)nc2cc1[N+](=O)[O-]	–	inactive: -4.43%
Cc1ccc([N+](=O)[O-])cc1Nc1nc(N2CCCC2)nc(N2CCCC2)n1	–	inconclusive: 4.11%
O=C(CSc1ncnc2ccccc12)c1cccs1	inconclusive: 11.2 µM [falling, partial curve]	–
CN(CC(=O)Nc1ccc2c(c1)OCCO2)S(=O)(=O)c1ccc(Br)s1	inconclusive: 29.1 µM [rising, single point]	–
CCN(c1cccc(C)c1)S(=O)(=O)c1ccc2[nH]c(=O)c(=O)[nH]c2c1	–	inactive: 0.688%
CCCCNC(=O)c1c(N)n(/N=C/c2ccccn2)c2nc3ccccc3nc12	–	inconclusive: -20.7%
COc1cc(/C=N/NC(=O)Cc2ccccc2)cc(OC)c1OC	–	inconclusive: -4.66%
O=C(O)c1ccc(/C=N/Nc2nc3ccccc3[nH]2)cc1	inconclusive: 3.55 µM [falling, partial curve]	–
Cc1ccc(/C=C/C(=O)c2ccccc(=O)c2O)cc1C	inconclusive: 20.6 µM [falling, single point]	–
COc1ccc(CC(=O)Nc2nnc(C(C)C)s2)cc1	–	inconclusive: 14.6%
